PubChem BioAssay AID1508588, Peter MacCallum Cancer Centre – 2020
Test: 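Which gene losses make BRAF-mutant melanoma cells more responsive to vemurafenib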 (primary screen). Cells: human WM266.4 melanoma cells (BRAF V600 mutant). Knock-down reagent: siRNA pool against human genes, 40 nM. Time to read-out: 96 h from transfection to read-out. Treatment: vemurafenib 300 nM (about IC25), added 48 h after transfection, for 48 h; comparison arm got DMSO vehicle only. Measurement: 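Cell gain (DAPI nuclei at end minus before drug, mean of two replicates) and medium lactate by absorbance per cell, both as ratio to non-targeting siRNA, also grouped into fold-change classes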. Reading the numbers: cell gain with vemurafenib: higher = more cell gain than with non-targeting siRNA; lactate per cell with vemurafenib: higher = more lactate made per cell. Active means: 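a knock-down counts as enhancing when its fold-change classes with vehicle and with vemurafenib, taken together, show a stronger drug effect on cell gain or lactate per cell; exact class pairs not stated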. Calls: active = enhances vemurafenib effect; inactive = no enhancement seen.
Here is one part, drawn at random, of about 18,000 reagents. In the full data, 790 (4.4%) were called active. 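Calls rest on a combination of fold-change classes in drug and vehicle arms, not all shown here.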 Entries without a mark were called inactive.

gene	PubChem SID	cell gain with vemurafenib	lactate per cell with vemurafenib
ENHO (energy homeostasis associated)	SID135625029	0.59	1.02
ATP1B3 (ATPase Na+/K+ transporting subunit beta 3)	SID134310526	0.07	2.55
ELP6 (elongator acetyltransferase complex subunit 6)	SID152153383	0.19	0.42
RERGL (RERG like)	SID134314487	0.16	1.01
ARFIP1 (ARF interacting protein 1)	SID152150717	0.06	2.41
GNAT1 (G protein subunit alpha transducin 1)	SID134314535	0.96	0.98
CDH22 (cadherin 22)	SID134317336	0.47	1.8
AFAP1 (actin filament associated protein 1)	SID152152346	0.32	0.78
PHKG1 (phosphorylase kinase catalytic subunit gamma 1)	SID152147540	0.53 (active)	0.64
SESN3 (sestrin 3)	SID135623499	0.25	2.05
KRT36 (keratin 36)	SID152146979	0.35	1.47
BCL2 (BCL2 apoptosis regulator)	SID152150945	0.38	0.71
MRPS35 (mitochondrial ribosomal protein S35)	SID134317310	0.37	1.16
ANXA8L1 (annexin A8 like 1)	SID152154117	0.5	1.52
GIPR (gastric inhibitory polypeptide receptor)	SID134310957	1.22	0.7
TSEN2 (tRNA splicing endonuclease subunit 2)	SID134320656	0.26	2.01
DNAH10 (dynein axonemal heavy chain 10)	SID135624630	1.3	0.64
TRIM41 (tripartite motif containing 41)	SID135621315	0.97	0.8

An excerpt from above, limited to “cell gain with vemurafenib”:
BCL2 (BCL2 apoptosis regulator) [SID152150945]	0.38
MRPS35 (mitochondrial ribosomal protein S35) [SID134317310]	0.37
ANXA8L1 (annexin A8 like 1) [SID152154117]	0.5

Next reagents follow:
gene	PubChem SID	cell gain with vemurafenib	lactate per cell with vemurafenib
PRDM9 (PR/SET domain 9)	SID135624031	0.5	1.02
LPIN3 (lipin 3)	SID135625201	0.72	0.48
IFNL1 (interferon lambda 1)	SID135621482	0.54	1.45
ARMC7 (armadillo repeat containing 7)	SID135623111	1.08	0.96
MYO5C (myosin VC)	SID152150856	1.12	0.4
PSMD13 (proteasome 26S subunit, non-ATPase 13)	SID135622112	0.12	2.83
TOR1AIP2 (torsin 1A interacting protein 2)	SID134318229	0.93	1.37
TOR1AIP2 (torsin 1A interacting protein 2)	SID152150266	0.77	1
HECW2	SID134312312	0.66	0.47
MS4A10 (membrane spanning 4-domains A10)	SID152149396	0.59	1.46
SLC13A3	SID135621364	0.98	0.6
CDK7 (cyclin dependent kinase 7)	SID152150057	0.61	0.62
DENND5B (DENN domain containing 5B)	SID152153951	0.49	1.4
ZBTB35 (zinc finger and BTB domain containing 35)	SID152156317	0.46	0.68
FAM110A (family with sequence similarity 110 member A)	SID152154587	0.81	0.71
RAB3A (RAB3A, member RAS oncogene family)	SID134314394	0.56	1.04
